# Measured values taken from article PMC8373905.
# Sequences of proteins named here, by UniProt entry; tags and fusion partners are left off.
# UniProt P11387: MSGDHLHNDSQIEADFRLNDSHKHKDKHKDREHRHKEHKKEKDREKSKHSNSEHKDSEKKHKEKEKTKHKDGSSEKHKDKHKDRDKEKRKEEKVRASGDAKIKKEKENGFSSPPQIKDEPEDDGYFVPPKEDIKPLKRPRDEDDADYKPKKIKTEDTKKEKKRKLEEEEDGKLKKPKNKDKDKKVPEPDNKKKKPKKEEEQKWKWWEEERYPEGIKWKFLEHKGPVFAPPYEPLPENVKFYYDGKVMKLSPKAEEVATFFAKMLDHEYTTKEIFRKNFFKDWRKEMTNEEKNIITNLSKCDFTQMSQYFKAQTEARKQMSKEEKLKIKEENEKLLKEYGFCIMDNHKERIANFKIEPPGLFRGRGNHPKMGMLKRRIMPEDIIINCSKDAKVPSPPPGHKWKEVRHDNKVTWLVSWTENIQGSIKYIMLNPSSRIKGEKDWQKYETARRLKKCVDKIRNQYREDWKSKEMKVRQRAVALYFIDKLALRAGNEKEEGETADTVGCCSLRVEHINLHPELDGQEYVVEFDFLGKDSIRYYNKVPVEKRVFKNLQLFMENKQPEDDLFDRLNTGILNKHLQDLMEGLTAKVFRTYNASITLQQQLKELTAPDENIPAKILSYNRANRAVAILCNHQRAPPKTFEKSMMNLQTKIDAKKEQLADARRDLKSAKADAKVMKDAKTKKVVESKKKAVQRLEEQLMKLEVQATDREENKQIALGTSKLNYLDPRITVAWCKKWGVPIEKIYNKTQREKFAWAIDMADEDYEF
# UniProt P09874: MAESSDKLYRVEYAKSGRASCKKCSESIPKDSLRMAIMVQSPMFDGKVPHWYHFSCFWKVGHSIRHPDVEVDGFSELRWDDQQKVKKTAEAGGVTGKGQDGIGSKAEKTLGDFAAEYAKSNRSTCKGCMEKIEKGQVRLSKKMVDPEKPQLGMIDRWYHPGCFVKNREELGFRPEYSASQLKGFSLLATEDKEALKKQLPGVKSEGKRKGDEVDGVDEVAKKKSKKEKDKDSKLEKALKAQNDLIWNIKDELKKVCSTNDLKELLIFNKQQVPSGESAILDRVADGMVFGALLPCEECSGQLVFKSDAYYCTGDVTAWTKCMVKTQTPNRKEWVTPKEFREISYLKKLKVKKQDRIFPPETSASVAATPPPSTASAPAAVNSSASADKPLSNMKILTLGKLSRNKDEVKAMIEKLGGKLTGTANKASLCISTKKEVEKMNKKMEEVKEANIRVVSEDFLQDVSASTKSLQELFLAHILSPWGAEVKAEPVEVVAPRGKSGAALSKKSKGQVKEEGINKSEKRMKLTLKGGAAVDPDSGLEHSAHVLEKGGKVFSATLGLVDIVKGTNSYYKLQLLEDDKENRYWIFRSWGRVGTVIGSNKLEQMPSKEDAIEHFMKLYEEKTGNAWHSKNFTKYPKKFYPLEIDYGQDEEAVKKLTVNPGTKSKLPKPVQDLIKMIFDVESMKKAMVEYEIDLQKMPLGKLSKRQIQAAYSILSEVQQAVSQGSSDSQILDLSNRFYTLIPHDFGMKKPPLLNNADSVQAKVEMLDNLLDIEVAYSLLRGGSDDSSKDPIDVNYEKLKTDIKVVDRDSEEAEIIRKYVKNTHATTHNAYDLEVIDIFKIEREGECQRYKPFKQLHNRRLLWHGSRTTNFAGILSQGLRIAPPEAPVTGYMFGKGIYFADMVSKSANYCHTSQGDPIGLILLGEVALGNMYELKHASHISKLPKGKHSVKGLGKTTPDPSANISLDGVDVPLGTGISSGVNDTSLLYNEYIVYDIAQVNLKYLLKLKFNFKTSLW
# UniProt Q93009: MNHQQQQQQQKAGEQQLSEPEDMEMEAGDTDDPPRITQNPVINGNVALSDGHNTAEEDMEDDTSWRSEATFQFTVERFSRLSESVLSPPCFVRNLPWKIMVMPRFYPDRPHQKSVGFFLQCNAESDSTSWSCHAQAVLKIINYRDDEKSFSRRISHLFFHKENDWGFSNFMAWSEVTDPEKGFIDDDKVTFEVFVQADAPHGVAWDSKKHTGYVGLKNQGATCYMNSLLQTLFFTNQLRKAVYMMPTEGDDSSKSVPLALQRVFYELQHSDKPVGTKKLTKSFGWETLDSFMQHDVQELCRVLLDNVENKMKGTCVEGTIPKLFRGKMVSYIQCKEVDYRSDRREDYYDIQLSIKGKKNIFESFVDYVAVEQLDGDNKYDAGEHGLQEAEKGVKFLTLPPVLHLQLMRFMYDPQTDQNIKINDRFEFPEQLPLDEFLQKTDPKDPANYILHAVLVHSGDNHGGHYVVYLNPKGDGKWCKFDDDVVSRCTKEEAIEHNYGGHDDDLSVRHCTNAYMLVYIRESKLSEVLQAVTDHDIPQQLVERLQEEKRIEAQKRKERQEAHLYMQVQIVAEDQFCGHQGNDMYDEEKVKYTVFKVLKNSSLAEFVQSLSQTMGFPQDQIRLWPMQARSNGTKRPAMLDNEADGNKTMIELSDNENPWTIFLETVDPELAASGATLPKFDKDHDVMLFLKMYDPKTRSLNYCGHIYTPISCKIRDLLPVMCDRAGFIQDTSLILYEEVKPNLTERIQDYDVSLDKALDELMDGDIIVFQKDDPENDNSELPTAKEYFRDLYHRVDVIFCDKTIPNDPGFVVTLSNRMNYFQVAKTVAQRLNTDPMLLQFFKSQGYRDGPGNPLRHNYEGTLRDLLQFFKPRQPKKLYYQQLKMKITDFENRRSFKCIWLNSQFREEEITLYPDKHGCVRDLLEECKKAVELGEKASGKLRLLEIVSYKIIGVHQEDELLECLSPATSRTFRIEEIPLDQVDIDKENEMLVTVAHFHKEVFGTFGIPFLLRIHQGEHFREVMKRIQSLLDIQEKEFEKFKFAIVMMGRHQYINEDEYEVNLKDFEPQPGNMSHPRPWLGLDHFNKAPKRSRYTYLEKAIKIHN
# These are yes or no findings as the source states them, for the method shown. Binding seen in cells or lysates may run through a third protein. Here binding means that the protein was enriched with, or labelled near, the bait; the list need not be complete.
# Target: 6×His-tagged TOP1 (topoisomerase I) (human) (UniProt P11387)
# Test: affinity purification with mass spectrometry; His-tag pulldown with Ni-NTA agarose from HCT116 cells transfected with His-TOP1 or empty vector (pTrex), without CPT, then HPLC-MS/MS
row,Substance,binding
1,"PARP1, endogenous (from UniProt P09874 1-1014) (enzyme)",binds
2,"USP7 (ubiquitin-specific protease), endogenous (from UniProt Q93009 1-1102) (enzyme)",binds
